Measured values published in paper PMC11649929.

Chains of the proteins cited; added tags and fusions are not shown. Lines headed by an entry give the natural chain unless they say otherwise; changes in a name come on top.
UniProt P53994: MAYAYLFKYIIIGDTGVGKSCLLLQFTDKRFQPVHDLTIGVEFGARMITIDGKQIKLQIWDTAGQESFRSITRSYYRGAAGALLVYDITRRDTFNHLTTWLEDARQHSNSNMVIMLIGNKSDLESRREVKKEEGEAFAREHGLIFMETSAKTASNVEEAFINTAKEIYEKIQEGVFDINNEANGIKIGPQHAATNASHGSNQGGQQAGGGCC
UniProt Q8VCR2: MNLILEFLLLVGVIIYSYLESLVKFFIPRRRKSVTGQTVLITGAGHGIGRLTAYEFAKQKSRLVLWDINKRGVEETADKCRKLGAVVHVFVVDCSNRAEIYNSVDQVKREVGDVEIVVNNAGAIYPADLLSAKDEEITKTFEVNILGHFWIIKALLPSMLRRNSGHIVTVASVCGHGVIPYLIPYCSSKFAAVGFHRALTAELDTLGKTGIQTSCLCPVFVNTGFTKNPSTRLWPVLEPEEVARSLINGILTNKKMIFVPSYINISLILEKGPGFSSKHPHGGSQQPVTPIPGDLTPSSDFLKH

Biological target: MYC-BirA*-Rab2A (Mouse) (mouse) (UniProt P53994)
Experiment: proximity labelling; HEK293T cells transfected with BirA*-Rab2A and HSD17B13 plasmids, NeutrAvidin beads pulldown, Western blotting

binding: binds
Substance: HSD17B13 expressed from a plasmid in HEK293T cells (tag not told) (from UniProt Q8VCR2)

These are yes or no findings as the source states them, for the method shown. In cells and extracts the contact can be indirect. A yes stands for co-enrichment or nearness to the bait. Other partners may have been found.
